Measurements taken from PubChem BioAssay AID252 (DTP/NCI, 2004).
The list shows only some results of the screen, not a fair sample: it gathers tests that were run many times, whatever their T/C, doses with no T/C, and many T/C values between a quarter and a half above the control. Other doses and runs of a compound stand elsewhere. T/C gives the treated animals as a percentage of the vehicle group. Some entries give survivors of the animals treated and no T/C: the source holds a T/C of zero for them, seemingly a mark for toxic or unscored doses. Some survivor counts are full or nearly so, which does not show that the dose was tolerated: the source hardly ever lists a survival T/C far under the control, and the zero likely stands for such cases as well. Counts of survivors are from the toxicity check (mostly the fifth day) where no day follows; animals may have died later. Schedule codes are those of the source, taken here to give the interval after Q, in days (D) or hours (H), and the number of doses after X. Some molecules as drawn cover several salts, stereoisomers or complexes of the source; a dose is that of the sample tested. Some doses were run more than once; the values are given in rising order. For survival time, this PubChem deposit counts one and a half times the control or more as active, and values a quarter to a half above the control carry no call in these data; other NCI protocols may use other cut-offs. Marks such as (2×) say how often a value occurs here. Some T/C values are followed by the survivors on the day toxicity was checked, most often the fifth; where none is given, no animal had died by that day. Some schedule codes hold Z or #, which are not explained here.

Test system: BDF1 mice, intracerebral L1210 leukemia, survival T/C
Assay: NCI In Vivo Anticancer Drug Screen. Data for tumor model L1210 Leukemia (intracerebral) in B6D2F1 (BDF1) mice
Conditions: higher T/C = longer survival
Summary of the method: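 Mice carrying transplanted tumour were dosed with compound; survival was recorded and expressed as treated-group value (T) divided by vehicle-control value (C).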

[1] = T/C endpoint: mean survival time, dose: 300.0 mg/kg/injection, schedule: Q01DX001 (ip), vehicle: carboxymethylcellulose (CMC)

## COCCOCCN1CCN(CCCN2c3ccccc3Sc3ccc(C(F)(F)F)cc32)CC1
T/C endpoint: mean survival time, dose: 25.0 mg/kg/injection, schedule: Q01DX009 (ip), vehicle: saline
  survivor count: 0 of 6
T/C endpoint: mean survival time, dose: 35.0 mg/kg/injection, schedule: Q01DX009 (ip), vehicle: saline
  survivor count: 0 of 6
T/C endpoint: mean survival time, dose: 50.0 mg/kg/injection, schedule: Q01DX009 (ip), vehicle: saline
  survivor count: 0 of 6

## O=NN(CCCl)C(=O)NC1CC2CCC1C2 (configuration not stated)
T/C endpoint: mean survival time, dose: 14.5 mg/kg/injection, schedule: Q01DX001 (ip), vehicle: other
  T/C: 130 % of control (2×)
T/C endpoint: mean survival time, dose: 18.0 mg/kg/injection, schedule: Q01DX001 (ip), vehicle: carboxymethylcellulose (CMC)
  T/C: 135 % of control
T/C endpoint: mean survival time, dose: 29.0 mg/kg/injection, schedule: Q01DX001 (ip), vehicle: other
  T/C: 157, 164 [9 of 10 alive], 188, 193 % of control
T/C endpoint: mean survival time, dose: 58.0 mg/kg/injection, schedule: Q01DX001 (ip), vehicle: other
  T/C: 326, 329, 333 [9 of 10 alive], 395 % of control

## CN(N=O)C(=O)Nc1ccc(F)cc1
[1]
  survivor count: 0 of 10
T/C endpoint: mean survival time, dose: 600.0 mg/kg/injection, schedule: Q01DX001 (ip), vehicle: carboxymethylcellulose (CMC)
  survivor count: 0 of 10
T/C endpoint: mean survival time, dose: 1200.0 mg/kg/injection, schedule: Q01DX001 (ip), vehicle: carboxymethylcellulose (CMC)
  survivor count: 0 of 10

## O=NN(CCBr)C(=O)NC1CCCCC1
T/C endpoint: mean survival time, dose: 200.0 mg/kg/injection, schedule: Q01DX001 (ip), vehicle: carboxymethylcellulose (CMC)
  T/C: 126 % of control
T/C endpoint: mean survival time, dose: 230.0 mg/kg/injection, schedule: Q01DX001 (ip), vehicle: carboxymethylcellulose (CMC)
  T/C: 132 % of control
[1]
  T/C: 136 % of control
T/C endpoint: mean survival time, dose: 450.0 mg/kg/injection, schedule: Q01DX001 (ip), vehicle: carboxymethylcellulose (CMC)
  survivor count: 2 of 10
T/C endpoint: mean survival time, dose: 500.0 mg/kg/injection, schedule: Q01DX001 (ip), vehicle: carboxymethylcellulose (CMC)
  survivor count: 3 of 10

## CN(C)N=Nc1ccc(C(N)=O)cc1
T/C endpoint: median survival time, dose: 80.0 mg/kg/injection, schedule: Q01DX009 (ip), vehicle: saline with Tween-80
  T/C: 137 % of control
T/C endpoint: median survival time, dose: 160.0 mg/kg/injection, schedule: Q01DX009 (ip), vehicle: saline with Tween-80
  T/C: 145 % of control

## COc1cccc2c1C(=O)c1c(O)c3c(c(O)c1C2=O)C[C@@](O)(C(=O)CO)C[C@@H]3OC1CC(N)C(O)C(C)O1 (some centres not stated)
T/C endpoint: mean survival time, dose: 8.0 mg/kg/injection, schedule: Q01DX005 (ip), vehicle: saline
  survivor count: 9 of 10
T/C endpoint: median survival time, dose: 1.08 mg/kg/injection, schedule: Q04DX003 (ip), vehicle: water, evaluated on day 5
  T/C: 99 and 104 % of control
T/C endpoint: median survival time, dose: 1.08 mg/kg/injection, schedule: Q04DX003 (ip), vehicle: water, evaluated on day 24
  T/C: 104 % of control
T/C endpoint: median survival time, dose: 1.08 mg/kg/injection, schedule: Q04DX003 (ip), vehicle: water, evaluated on day 60
  T/C: 99 % of control
T/C endpoint: median survival time, dose: 1.8 mg/kg/injection, schedule: Q04DX003 (ip), vehicle: water, evaluated on day 5
  T/C: 99, 101, 104, 110 % of control
T/C endpoint: median survival time, dose: 1.8 mg/kg/injection, schedule: Q04DX003 (ip), vehicle: water, evaluated on day 24
  T/C: 110 % of control
T/C endpoint: median survival time, dose: 1.8 mg/kg/injection, schedule: Q04DX003 (ip), vehicle: water, evaluated on day 60
  T/C: 100 % of control
T/C endpoint: median survival time, dose: 1.8 mg/kg/injection, schedule: Q04DX003 (ip), vehicle: water, evaluated on day 64
  T/C: 101 and 104 % of control
T/C endpoint: median survival time, dose: 3.0 mg/kg/injection, schedule: Q04DX003 (ip), vehicle: water, evaluated on day 5
  T/C: 95, 99, 101, 105 % of control
T/C endpoint: median survival time, dose: 3.0 mg/kg/injection, schedule: Q04DX003 (ip), vehicle: water, evaluated on day 24
  T/C: 101 % of control
T/C endpoint: median survival time, dose: 3.0 mg/kg/injection, schedule: Q04DX003 (ip), vehicle: water, evaluated on day 60
  T/C: 95 % of control
T/C endpoint: median survival time, dose: 3.0 mg/kg/injection, schedule: Q04DX003 (ip), vehicle: water, evaluated on day 64
  T/C: 100 and 105 % of control
T/C endpoint: median survival time, dose: 5.0 mg/kg/injection, schedule: Q04DX003 (ip), vehicle: water, evaluated on day 5
  T/C: 99 (2×), 109, 118 % of control
T/C endpoint: median survival time, dose: 5.0 mg/kg/injection, schedule: Q04DX003 (ip), vehicle: water, evaluated on day 24
  T/C: 118 % of control
T/C endpoint: median survival time, dose: 5.0 mg/kg/injection, schedule: Q04DX003 (ip), vehicle: water, evaluated on day 60
  T/C: 99 % of control
T/C endpoint: median survival time, dose: 5.0 mg/kg/injection, schedule: Q04DX003 (ip), vehicle: water, evaluated on day 64
  T/C: 99 and 109 % of control
T/C endpoint: median survival time, dose: 8.4 mg/kg/injection, schedule: Q04DX003 (ip), vehicle: water, evaluated on day 5
  T/C: 87, 93, 108, 115 % of control
T/C endpoint: median survival time, dose: 8.4 mg/kg/injection, schedule: Q04DX003 (ip), vehicle: water, evaluated on day 24
  T/C: 115 % of control [7 of 8 alive]
T/C endpoint: median survival time, dose: 8.4 mg/kg/injection, schedule: Q04DX003 (ip), vehicle: water, evaluated on day 60
  T/C: 87 % of control
T/C endpoint: median survival time, dose: 8.4 mg/kg/injection, schedule: Q04DX003 (ip), vehicle: water, evaluated on day 64
  T/C: 93 and 108 % of control

## O=C1C(N2CC2)=C(N2CC2)C(=O)C(N2CC2)=C1N1CC1
T/C endpoint: mean survival time, dose: 0.08 mg/kg/injection, schedule: Q01DX009 (ip), vehicle: saline
  T/C: 127 % of control

## CC1CC(NC(=O)N(CCCl)N=O)CC(C)(C)C1 (configuration not stated)
T/C endpoint: mean survival time, dose: 1000.0 mg/kg/injection, schedule: Q01DX001 (ip), vehicle: other
  survivor count: 4 of 10

## O=C1C(NCCO)=C(N2CC2)C(=O)C(NCCO)=C1N1CC1
T/C endpoint: mean survival time, dose: 0.37 mg/kg/injection, schedule: Q01DX009 (ip), vehicle: saline
  T/C: 148 % of control
T/C endpoint: mean survival time, dose: 0.75 mg/kg/injection, schedule: Q01DX009 (ip), vehicle: saline
  T/C: 131 and 148 % of control
T/C endpoint: mean survival time, dose: 1.5 mg/kg/injection, schedule: Q01DX009 (ip), vehicle: saline
  survivor count: 6 of 6

## COc1cc(NS(C)(=O)=O)ccc1Nc1c2ccccc2nc2c(C)cccc12
T/C endpoint: mean survival time, dose: 5.0 mg/kg/injection, schedule: Q01DX009 (ip), vehicle: water
  survivor count: 7 of 10
T/C endpoint: mean survival time, dose: 10.0 mg/kg/injection, schedule: Q01DX009 (ip), vehicle: water
  survivor count: 9 of 10 and 10 of 10
T/C endpoint: mean survival time, dose: 10.0 mg/kg/injection, schedule: Q01DX009 (sc), vehicle: water
  survivor count: 9 of 10
T/C endpoint: mean survival time, dose: 20.0 mg/kg/injection, schedule: Q01DX009 (ip), vehicle: water
  survivor count: 7 of 10 and 10 of 10
T/C endpoint: mean survival time, dose: 20.0 mg/kg/injection, schedule: Q01DX009 (sc), vehicle: water
  survivor count: 6 of 10 and 8 of 10

## O=C1N[C@@H]([C@H]2CC[C@H](Cl)CN2)C(=O)N[C@H]1[C@H]1CC[C@H](Cl)CN1
T/C endpoint: mean survival time, dose: 2.0 mg/kg/injection, schedule: Q01DX009 (ip), vehicle: saline
  T/C: 140 % of control
T/C endpoint: mean survival time, dose: 16.0 mg/kg/injection, schedule: Q01DX001 (ip), vehicle: saline
  survivor count: 3 of 10

## O=NN(CCCl)C(=O)Nc1ccccc1
T/C endpoint: mean survival time, dose: 144.0 mg/kg/injection, schedule: Q01DX001 (ip), vehicle: carboxymethylcellulose (CMC)
  survivor count: 0 of 10
T/C endpoint: mean survival time, dose: 288.0 mg/kg/injection, schedule: Q01DX001 (ip), vehicle: carboxymethylcellulose (CMC)
  survivor count: 0 of 10

## CC(=O)OCC1OC(n2cnc3c(=S)nc(N)[nH]c32)C(OC(C)=O)C1OC(C)=O (configuration not stated)
T/C endpoint: mean survival time, dose: 5.0 mg/kg/injection, schedule: Q01DX Z (ip), vehicle: other
  T/C: 130 % of control
T/C endpoint: mean survival time, dose: 10.0 mg/kg/injection, schedule: Q01DX Z (ip), vehicle: other
  T/C: 140 % of control
T/C endpoint: mean survival time, dose: 20.0 mg/kg/injection, schedule: Q01DX Z (ip), vehicle: other
  T/C: 145 % of control

## O=NN(CCCl)C(=O)Nc1ccc(Oc2ccc(NC(=O)N(CCCl)N=O)cc2)cc1
T/C endpoint: mean survival time, dose: 1000.0 mg/kg/injection, schedule: Q01DX001 (ip), vehicle: carboxymethylcellulose (CMC)
  T/C: 129 % of control

## CN(N=O)C(=O)NC(=O)N(C)N=O
T/C endpoint: mean survival time, dose: 108.0 mg/kg/injection, schedule: Q01DX001 (ip), vehicle: carboxymethylcellulose (CMC)
  survivor count: 8 of 10
T/C endpoint: mean survival time, dose: 216.0 mg/kg/injection, schedule: Q01DX001 (ip), vehicle: carboxymethylcellulose (CMC)
  survivor count: 0 of 10
T/C endpoint: mean survival time, dose: 432.0 mg/kg/injection, schedule: Q01DX001 (ip), vehicle: carboxymethylcellulose (CMC)
  survivor count: 0 of 10

## O=NN(CCF)C(=O)NC1CCSCC1
T/C endpoint: mean survival time, dose: 7.0 mg/kg/injection, schedule: Q01DX001 (ip), vehicle: other
  T/C: 135 and 136 % of control
T/C endpoint: mean survival time, dose: 62.0 mg/kg/injection, schedule: Q01DX001 (ip), vehicle: other
  survivor count: 6 of 10
T/C endpoint: mean survival time, dose: 81.0 mg/kg/injection, schedule: Q01DX001 (ip), vehicle: other
  survivor count: 5 of 10
T/C endpoint: mean survival time, dose: 121.0 mg/kg/injection, schedule: Q01DX001 (ip), vehicle: other
  survivor count: 0 of 10
